Patent US20150328198A1, “METHODS OF TREATING METHICILLIN-RESISTANT STAPHYLOCOCCUS AUREUS (MRSA) USING PPAR-GAMMA AGONISTS” (priority 2014, published 2015)
At least one structure is not confirmed: it was looked up by name or label, or the drawing left a doubt.

System: MRSA
Experiment: murine MRSA skin and soft tissue infection (SSTI) model
Format: in vivo, mice
Description: Peroxisome Proliferator Activator Receptor-γ (PPAR-γ) is a nuclear receptor that inhibits inflammation and redirects macrophages towards an M2 phenotype by driving Arg-1, Scd-1, SSAT and fatty acid synthesis gene expression. PPAR-γ is therefore involved in the development of adipocytes as well as M2-MΦs.

CC1(COc2ccc(CC3SC(=O)NC3=O)cc2)CCCCC1 (stereo not drawn) [Ciglitazone]
MRSA clearance (mouse, in vivo): not

CCc1ccc(CCOc2ccc(CC3SC(=O)NC3=O)cc2)nc1 (stereo not drawn) [Pioglitazone]
bacterial burdens (days 7 and 12): significantly reduced
MRSA clearance (mouse, in vivo): significantly improved
bacterial burdens over time (mouse, in vivo): significantly reduced
dissemination to other organs (mouse, in vivo): limited

Cc1c(C)c2c(c(C)c1O)CCC(C)(COc1ccc(CC3SC(=O)NC3=O)cc1)O2 (stereo not drawn) [Troglitazone]
MRSA clearance (mouse, in vivo): not
